# Source: the supplement of paper PMC5836539
# Chains of the proteins cited; added tags and fusions are not shown. Lines headed by an entry give the natural chain unless they say otherwise; changes in a name come on top.
# UniProt Q9H7N4: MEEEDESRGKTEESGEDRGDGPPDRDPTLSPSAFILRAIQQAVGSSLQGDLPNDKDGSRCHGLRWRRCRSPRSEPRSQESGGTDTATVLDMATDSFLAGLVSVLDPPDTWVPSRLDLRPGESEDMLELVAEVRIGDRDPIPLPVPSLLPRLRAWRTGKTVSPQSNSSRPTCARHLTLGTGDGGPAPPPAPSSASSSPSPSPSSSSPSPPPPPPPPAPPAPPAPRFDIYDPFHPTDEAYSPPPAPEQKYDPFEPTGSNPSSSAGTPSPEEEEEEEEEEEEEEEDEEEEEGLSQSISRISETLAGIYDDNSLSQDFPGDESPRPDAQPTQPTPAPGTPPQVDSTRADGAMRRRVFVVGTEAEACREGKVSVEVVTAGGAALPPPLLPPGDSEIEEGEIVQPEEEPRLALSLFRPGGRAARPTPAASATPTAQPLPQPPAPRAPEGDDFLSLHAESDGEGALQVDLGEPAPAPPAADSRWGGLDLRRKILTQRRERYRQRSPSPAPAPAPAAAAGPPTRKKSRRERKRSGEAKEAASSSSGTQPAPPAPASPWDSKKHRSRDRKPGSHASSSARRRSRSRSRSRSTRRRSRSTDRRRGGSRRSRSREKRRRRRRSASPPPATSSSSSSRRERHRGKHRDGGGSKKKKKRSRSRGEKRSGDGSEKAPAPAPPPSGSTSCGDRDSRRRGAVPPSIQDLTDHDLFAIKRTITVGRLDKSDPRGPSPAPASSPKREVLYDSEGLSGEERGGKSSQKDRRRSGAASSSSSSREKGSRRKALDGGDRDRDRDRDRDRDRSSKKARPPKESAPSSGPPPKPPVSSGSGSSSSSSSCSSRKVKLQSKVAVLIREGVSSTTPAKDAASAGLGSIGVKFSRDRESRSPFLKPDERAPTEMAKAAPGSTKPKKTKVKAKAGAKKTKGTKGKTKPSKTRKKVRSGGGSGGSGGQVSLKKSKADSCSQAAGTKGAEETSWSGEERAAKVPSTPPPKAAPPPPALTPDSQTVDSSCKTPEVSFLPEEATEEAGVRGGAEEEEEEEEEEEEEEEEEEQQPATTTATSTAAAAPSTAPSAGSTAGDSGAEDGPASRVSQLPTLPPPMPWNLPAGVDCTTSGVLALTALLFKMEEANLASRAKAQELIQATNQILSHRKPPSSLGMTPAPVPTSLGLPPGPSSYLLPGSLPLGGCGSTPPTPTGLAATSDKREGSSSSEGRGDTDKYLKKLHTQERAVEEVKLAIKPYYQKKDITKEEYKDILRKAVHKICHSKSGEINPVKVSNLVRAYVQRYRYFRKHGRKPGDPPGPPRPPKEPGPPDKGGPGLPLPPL
# UniProt Q99442: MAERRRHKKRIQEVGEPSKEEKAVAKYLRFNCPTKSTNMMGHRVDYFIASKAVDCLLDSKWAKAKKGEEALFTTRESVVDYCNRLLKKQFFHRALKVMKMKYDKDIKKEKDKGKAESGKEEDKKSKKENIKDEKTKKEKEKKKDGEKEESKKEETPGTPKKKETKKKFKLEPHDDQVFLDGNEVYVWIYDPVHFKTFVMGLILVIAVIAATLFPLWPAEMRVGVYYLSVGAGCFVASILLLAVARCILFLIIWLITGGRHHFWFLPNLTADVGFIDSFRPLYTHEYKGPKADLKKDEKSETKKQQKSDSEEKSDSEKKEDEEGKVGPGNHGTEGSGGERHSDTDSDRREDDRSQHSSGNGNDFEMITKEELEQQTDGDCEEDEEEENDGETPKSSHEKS
# UniProt Q13435: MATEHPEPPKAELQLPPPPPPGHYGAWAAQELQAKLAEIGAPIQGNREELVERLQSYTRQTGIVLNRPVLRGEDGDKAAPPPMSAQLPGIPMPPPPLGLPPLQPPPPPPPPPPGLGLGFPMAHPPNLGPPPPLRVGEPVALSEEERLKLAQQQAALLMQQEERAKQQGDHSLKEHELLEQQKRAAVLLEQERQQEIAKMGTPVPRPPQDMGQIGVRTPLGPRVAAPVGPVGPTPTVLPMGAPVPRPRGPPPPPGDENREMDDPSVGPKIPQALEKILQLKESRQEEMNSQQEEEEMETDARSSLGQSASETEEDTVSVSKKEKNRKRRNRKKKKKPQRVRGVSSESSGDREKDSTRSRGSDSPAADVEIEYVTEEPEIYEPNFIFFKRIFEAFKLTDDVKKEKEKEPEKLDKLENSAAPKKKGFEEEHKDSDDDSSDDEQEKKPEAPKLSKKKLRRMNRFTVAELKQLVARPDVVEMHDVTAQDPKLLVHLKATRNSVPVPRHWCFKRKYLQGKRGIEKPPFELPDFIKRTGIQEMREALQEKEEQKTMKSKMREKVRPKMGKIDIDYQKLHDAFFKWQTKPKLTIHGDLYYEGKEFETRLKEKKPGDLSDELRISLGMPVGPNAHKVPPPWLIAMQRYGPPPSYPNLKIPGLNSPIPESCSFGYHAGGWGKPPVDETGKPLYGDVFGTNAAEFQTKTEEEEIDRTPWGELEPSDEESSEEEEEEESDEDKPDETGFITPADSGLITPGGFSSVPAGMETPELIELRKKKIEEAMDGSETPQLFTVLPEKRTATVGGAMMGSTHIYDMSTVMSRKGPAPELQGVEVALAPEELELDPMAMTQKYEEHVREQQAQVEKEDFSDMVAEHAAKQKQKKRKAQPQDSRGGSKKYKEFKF
# UniProt Q9Y3L3: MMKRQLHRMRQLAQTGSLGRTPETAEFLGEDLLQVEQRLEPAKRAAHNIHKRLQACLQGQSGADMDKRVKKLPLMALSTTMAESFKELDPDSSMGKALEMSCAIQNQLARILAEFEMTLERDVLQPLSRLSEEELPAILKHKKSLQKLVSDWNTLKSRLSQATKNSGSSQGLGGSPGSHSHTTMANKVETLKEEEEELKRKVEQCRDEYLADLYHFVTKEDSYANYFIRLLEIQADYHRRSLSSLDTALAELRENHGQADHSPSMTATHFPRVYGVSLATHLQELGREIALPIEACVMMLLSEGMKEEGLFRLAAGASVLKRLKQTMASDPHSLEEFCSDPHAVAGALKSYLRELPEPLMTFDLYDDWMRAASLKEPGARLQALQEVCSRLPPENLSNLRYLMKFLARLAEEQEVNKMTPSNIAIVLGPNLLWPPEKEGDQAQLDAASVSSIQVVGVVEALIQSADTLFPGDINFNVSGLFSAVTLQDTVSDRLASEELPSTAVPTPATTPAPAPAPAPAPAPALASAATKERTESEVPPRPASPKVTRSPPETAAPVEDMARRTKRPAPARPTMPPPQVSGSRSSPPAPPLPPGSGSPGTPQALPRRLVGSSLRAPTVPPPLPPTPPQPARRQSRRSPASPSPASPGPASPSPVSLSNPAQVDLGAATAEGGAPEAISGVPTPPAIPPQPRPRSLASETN
# UniProt A1X283: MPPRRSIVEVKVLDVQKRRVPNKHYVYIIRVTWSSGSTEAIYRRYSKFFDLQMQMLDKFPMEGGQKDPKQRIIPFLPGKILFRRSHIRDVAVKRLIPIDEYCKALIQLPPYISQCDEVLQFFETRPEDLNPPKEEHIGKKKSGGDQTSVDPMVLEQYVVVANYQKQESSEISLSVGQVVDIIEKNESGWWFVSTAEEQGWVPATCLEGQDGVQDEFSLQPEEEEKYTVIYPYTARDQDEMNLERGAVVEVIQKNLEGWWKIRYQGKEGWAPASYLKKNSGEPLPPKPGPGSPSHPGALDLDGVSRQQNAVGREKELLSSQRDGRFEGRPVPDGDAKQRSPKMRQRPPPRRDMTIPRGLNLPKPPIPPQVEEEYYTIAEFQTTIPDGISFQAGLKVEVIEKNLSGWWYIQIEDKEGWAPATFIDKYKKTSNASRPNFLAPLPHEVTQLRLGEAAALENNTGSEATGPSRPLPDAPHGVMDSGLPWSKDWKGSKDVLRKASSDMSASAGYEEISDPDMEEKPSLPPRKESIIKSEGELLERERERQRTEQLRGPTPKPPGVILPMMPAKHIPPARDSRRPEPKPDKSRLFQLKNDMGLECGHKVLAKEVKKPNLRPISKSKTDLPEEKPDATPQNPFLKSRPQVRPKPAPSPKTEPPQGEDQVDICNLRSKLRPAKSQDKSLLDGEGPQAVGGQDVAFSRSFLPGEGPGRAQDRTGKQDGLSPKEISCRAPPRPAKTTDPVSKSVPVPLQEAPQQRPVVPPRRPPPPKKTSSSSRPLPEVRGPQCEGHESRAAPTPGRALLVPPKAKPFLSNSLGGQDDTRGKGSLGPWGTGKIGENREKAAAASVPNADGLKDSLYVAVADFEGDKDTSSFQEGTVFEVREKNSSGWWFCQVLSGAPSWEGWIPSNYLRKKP
# UniProt O14745: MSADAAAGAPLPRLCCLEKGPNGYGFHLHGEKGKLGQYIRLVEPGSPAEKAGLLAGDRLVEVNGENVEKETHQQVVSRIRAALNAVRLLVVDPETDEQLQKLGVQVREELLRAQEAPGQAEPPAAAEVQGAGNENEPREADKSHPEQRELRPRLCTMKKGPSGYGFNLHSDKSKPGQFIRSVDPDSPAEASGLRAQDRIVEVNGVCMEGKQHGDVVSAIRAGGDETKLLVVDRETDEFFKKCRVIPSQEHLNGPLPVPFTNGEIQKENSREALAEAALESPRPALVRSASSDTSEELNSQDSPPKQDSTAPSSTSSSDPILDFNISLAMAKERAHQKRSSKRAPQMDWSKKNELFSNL
# UniProt Q9UQE7: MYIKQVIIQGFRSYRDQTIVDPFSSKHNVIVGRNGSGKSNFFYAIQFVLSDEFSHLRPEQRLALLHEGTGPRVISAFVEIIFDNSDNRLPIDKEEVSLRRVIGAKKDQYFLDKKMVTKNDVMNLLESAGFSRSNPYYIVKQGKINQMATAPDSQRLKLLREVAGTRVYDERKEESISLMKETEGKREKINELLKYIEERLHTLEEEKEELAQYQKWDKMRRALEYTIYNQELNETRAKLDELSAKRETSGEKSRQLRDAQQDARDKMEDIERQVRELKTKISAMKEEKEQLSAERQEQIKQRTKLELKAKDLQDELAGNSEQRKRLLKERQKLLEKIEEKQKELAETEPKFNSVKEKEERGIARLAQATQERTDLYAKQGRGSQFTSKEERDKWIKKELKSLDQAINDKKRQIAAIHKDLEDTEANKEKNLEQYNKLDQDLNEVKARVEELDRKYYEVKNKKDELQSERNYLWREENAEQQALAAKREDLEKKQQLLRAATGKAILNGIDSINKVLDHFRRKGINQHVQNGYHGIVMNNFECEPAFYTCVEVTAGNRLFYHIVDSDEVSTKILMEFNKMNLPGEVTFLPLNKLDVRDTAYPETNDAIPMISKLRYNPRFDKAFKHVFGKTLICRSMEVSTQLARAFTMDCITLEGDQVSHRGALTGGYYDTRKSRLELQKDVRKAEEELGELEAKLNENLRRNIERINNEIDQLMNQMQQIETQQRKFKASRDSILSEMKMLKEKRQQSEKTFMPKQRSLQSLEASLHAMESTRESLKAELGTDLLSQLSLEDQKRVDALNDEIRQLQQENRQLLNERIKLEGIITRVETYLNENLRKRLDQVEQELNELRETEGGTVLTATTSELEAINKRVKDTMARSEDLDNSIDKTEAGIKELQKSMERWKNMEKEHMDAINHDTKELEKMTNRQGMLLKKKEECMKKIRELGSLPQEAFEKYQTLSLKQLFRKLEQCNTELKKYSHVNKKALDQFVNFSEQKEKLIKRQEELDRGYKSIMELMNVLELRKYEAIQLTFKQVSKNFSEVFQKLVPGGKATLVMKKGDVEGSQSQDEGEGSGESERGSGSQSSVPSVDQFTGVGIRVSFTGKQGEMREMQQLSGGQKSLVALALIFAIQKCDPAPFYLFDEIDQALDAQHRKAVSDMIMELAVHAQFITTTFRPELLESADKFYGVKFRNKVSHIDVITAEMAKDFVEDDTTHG
# UniProt Q5VWJ9: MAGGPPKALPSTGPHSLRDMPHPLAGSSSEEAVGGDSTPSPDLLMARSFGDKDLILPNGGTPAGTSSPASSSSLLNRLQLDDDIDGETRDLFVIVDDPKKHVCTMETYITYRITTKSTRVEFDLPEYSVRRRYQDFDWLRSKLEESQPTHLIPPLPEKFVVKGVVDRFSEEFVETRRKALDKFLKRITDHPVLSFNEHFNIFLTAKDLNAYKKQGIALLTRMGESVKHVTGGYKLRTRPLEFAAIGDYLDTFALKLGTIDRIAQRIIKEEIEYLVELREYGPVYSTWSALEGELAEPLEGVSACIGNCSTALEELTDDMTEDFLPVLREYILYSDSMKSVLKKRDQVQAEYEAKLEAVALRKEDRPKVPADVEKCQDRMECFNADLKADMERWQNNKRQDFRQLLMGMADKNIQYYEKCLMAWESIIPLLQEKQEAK
# UniProt P00441, whole entry, looked up: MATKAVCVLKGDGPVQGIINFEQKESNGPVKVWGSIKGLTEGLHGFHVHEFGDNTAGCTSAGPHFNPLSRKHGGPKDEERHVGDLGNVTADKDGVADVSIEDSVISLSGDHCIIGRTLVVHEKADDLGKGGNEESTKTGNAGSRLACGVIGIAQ
# ± gives the standard deviation of the averaged measurements. Single values are uncertain here, since repeats match poorly.
# Compound: CC[C@@H](C)Nc1cc(C(=O)N[C@H]2C[C@H]3CC[C@@H](C2)N3c2ccc(C(=O)C3CC3)cn2)c(C)cc1C(N)=O [XL888]
# Assay: phosphopeptide melting temperature shift (XL888 minus DMSO); higher = stabilised by drug treatment
# Conditions: 100 µM; treatment time 2 h; layout: intact cells; SK-Mel 28
# Procedure: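 Phospho-TPP in intact SK-Mel 28 cells treated with 100 uM XL888 or DMSO for 2 h, heated at 10 temperatures (37-67 C) for 3 min, soluble fraction TMT10plex-labelled and TiO2 phospho-enriched. Melting curves were fitted per phosphopeptide; the value is the melting point difference (drug minus vehicle) in each of two biological replicates.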
row,Target,phosphopeptide melting temperature shift
1,SASH1 phosphosite_1051 (phosphosite position: 1051) (UniProt O94885),-1.15 °C
2,SCAF1 phosphosite_239 (phosphosite position: 239) (UniProt Q9H7N4),-0.74 ± 2.5 °C
3,SCAF1 phosphosite_498 (phosphosite position: 498) (UniProt Q9H7N4),4.02 °C
4,SCAF1 phosphosite_500 (phosphosite position: 500) (UniProt Q9H7N4),4.02 °C
5,SEC62 phosphosite_158 (phosphosite position: 158) (UniProt Q99442),-0.143 °C
6,SF3A1 phosphosite_359 (phosphosite position: 359) (UniProt Q15459),1.08 ± 1.2 °C
7,SF3B2 phosphosite_431 (phosphosite position: 431) (UniProt Q13435),4.51 °C
8,SF3B2 phosphosite_435 (phosphosite position: 435) (UniProt Q13435),4.51 °C
9,SF3B2 phosphosite_436 (phosphosite position: 436) (UniProt Q13435),4.51 °C
10,SH3BP1 phosphosite_262 (phosphosite position: 262) (UniProt Q9Y3L3),0.876 ± 0.61 °C
11,SH3BP1 phosphosite_544 (phosphosite position: 544) (UniProt Q9Y3L3),4.94 °C
12,SH3PXD2B phosphosite_293 (phosphosite position: 293) (UniProt A1X283),2.59 °C
13,SLC4A1AP phosphosite_312 (phosphosite position: 312) (UniProt Q9BWU0),-0.103 ± 0.28 °C
14,SLC4A1AP phosphosite_712 (phosphosite position: 712) (UniProt Q9BWU0),1.86 ± 1.1 °C
15,SLC9A3R1 phosphosite_269 (phosphosite position: 269) (UniProt O14745),3.47 °C
16,SMARCAD1 phosphosite_211 (phosphosite position: 211) (UniProt Q9H4L7),0.57 °C
17,SMARCAD1 phosphosite_212 (phosphosite position: 212) (UniProt Q9H4L7),0.57 °C
18,SMARCC1 phosphosite_328 (phosphosite position: 328) (UniProt Q92922),1.65 ± 2.4 °C
19,SMARCC1 phosphosite_330 (phosphosite position: 330) (UniProt Q92922),1.65 ± 2.4 °C
20,SMARCC2 phosphosite_302 (phosphosite position: 302) (UniProt Q8TAQ2),1.07 °C
21,SMARCC2 phosphosite_304 (phosphosite position: 304) (UniProt Q8TAQ2),1.07 °C
22,SMC3 phosphosite_1067 (phosphosite position: 1067) (UniProt Q9UQE7),-0.534 ± 0.43 °C
23,SNRNP200 phosphosite_225 (phosphosite position: 225) (UniProt O75643),0.297 °C
24,SNX2 phosphosite_119 (phosphosite position: 119) (UniProt O60749),-1.32 ± 0.71 °C
25,SNX5 phosphosite_22 (phosphosite position: 22) (UniProt Q9Y5X3),2.03 ± 0.86 °C
26,SNX8 phosphosite_452 (phosphosite position: 452) (UniProt Q9Y5X2),1.89 °C
27,SNX8 phosphosite_456 (phosphosite position: 456) (UniProt Q9Y5X2),2.88 °C
28,SNX30 phosphosite_40 (phosphosite position: 40) (UniProt Q5VWJ9),1.27 °C
29,SOD1 phosphosite_99 (phosphosite position: 99) (UniProt P00441),0.501 ± 0.64 °C

# Looked up one by one from the list above, 2 records:
row,Target,phosphopeptide melting temperature shift
10,SH3BP1 phosphosite_262 (phosphosite position: 262) (UniProt Q9Y3L3),0.876 ± 0.61 °C
22,SMC3 phosphosite_1067 (phosphosite position: 1067) (UniProt Q9UQE7),-0.534 ± 0.43 °C
